Test results from publication PMC9884267.
Results are given in words; binding and its absence hold for the method and conditions named. Binding seen in cells or lysates may run through a third protein. Here binding means that the protein was enriched with, or labelled near, the bait; the list need not be complete.

The chains behind the UniProt entries cited, without tags or fusion partners.
UniProt Q9NP66: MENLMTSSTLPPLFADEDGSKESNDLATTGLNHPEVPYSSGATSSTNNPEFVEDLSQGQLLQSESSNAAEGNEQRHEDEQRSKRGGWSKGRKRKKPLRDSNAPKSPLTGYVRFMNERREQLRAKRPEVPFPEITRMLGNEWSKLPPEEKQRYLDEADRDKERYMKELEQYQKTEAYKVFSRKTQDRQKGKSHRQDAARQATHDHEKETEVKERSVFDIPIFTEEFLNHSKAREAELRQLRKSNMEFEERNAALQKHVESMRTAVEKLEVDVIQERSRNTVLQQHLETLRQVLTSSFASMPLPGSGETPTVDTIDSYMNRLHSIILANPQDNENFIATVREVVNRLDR
UniProt Q96BD5: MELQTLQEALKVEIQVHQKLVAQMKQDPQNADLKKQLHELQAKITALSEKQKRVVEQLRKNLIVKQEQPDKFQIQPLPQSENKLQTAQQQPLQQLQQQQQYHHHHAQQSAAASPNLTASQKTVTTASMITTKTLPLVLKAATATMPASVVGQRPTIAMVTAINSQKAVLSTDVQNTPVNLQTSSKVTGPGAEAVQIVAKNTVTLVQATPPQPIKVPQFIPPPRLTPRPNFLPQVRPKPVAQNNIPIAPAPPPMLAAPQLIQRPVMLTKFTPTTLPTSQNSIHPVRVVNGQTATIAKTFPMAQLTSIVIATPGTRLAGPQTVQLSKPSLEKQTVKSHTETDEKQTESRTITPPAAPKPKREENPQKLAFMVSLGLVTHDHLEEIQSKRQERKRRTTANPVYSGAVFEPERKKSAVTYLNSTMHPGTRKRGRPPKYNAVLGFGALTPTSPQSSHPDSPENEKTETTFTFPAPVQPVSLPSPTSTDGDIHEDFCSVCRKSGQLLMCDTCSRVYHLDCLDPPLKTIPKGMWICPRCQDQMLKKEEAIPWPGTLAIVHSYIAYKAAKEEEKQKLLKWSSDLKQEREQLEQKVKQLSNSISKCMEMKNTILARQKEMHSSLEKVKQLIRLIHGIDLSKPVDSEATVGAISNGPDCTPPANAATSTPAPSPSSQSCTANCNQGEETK
UniProt Q9UKL0: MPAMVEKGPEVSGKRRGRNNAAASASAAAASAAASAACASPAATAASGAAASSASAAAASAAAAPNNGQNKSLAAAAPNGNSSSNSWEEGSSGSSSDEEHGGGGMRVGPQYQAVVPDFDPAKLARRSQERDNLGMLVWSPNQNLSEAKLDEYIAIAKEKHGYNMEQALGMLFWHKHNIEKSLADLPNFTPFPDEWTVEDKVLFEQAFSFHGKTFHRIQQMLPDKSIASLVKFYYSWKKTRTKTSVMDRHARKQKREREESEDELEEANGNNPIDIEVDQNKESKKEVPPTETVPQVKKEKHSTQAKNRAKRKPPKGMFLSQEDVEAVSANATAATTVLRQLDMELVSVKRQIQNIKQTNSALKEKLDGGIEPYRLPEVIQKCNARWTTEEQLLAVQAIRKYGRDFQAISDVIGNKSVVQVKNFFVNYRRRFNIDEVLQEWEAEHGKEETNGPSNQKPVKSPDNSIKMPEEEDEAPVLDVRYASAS
UniProt Q7Z5J4: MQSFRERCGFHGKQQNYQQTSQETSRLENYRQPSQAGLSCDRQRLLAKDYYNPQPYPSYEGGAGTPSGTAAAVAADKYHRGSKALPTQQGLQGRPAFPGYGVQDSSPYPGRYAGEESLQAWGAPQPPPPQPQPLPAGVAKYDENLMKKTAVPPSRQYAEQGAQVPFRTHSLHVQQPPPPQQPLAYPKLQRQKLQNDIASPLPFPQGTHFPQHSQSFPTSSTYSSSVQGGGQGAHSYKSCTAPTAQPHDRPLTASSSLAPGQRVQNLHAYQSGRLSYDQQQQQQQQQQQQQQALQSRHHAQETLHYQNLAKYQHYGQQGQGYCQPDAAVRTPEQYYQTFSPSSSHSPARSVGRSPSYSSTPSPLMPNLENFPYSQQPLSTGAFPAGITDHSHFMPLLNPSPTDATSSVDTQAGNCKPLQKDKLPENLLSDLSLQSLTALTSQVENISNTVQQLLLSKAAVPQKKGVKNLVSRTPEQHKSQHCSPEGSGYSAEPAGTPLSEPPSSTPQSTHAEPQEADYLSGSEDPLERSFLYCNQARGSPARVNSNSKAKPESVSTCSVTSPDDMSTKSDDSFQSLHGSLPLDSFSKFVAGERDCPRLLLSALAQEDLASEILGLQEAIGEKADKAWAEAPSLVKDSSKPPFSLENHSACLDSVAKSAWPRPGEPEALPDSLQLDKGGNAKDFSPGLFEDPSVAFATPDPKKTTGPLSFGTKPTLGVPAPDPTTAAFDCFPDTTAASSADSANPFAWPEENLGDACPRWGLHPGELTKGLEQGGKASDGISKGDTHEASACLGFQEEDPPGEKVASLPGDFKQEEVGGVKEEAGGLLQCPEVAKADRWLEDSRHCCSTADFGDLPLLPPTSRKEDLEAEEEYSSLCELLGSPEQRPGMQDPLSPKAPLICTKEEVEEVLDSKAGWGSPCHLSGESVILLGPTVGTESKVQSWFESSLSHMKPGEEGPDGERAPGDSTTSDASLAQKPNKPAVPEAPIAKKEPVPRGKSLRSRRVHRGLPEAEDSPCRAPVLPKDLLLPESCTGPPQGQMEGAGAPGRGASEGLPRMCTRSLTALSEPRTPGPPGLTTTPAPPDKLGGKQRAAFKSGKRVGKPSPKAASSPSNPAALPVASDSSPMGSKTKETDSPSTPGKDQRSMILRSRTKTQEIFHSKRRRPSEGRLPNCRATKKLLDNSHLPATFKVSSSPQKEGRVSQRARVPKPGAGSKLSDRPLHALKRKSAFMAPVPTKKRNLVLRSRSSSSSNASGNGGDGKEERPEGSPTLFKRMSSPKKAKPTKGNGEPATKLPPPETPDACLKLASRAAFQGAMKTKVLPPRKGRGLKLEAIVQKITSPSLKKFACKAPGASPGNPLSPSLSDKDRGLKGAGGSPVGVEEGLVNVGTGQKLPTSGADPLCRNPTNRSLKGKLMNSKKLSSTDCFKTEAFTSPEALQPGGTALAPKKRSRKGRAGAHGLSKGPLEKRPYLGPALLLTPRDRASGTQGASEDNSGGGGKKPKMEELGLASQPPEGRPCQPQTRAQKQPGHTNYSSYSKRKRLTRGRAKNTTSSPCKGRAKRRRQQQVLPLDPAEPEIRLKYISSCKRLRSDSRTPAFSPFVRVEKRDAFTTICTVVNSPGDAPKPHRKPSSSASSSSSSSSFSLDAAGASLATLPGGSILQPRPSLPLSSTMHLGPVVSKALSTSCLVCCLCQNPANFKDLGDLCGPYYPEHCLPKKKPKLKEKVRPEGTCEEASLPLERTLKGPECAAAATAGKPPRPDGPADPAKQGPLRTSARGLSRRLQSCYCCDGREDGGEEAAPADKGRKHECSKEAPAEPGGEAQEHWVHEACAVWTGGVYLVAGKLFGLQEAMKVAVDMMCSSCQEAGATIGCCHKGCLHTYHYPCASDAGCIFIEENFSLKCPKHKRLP
UniProt Q9UGU0: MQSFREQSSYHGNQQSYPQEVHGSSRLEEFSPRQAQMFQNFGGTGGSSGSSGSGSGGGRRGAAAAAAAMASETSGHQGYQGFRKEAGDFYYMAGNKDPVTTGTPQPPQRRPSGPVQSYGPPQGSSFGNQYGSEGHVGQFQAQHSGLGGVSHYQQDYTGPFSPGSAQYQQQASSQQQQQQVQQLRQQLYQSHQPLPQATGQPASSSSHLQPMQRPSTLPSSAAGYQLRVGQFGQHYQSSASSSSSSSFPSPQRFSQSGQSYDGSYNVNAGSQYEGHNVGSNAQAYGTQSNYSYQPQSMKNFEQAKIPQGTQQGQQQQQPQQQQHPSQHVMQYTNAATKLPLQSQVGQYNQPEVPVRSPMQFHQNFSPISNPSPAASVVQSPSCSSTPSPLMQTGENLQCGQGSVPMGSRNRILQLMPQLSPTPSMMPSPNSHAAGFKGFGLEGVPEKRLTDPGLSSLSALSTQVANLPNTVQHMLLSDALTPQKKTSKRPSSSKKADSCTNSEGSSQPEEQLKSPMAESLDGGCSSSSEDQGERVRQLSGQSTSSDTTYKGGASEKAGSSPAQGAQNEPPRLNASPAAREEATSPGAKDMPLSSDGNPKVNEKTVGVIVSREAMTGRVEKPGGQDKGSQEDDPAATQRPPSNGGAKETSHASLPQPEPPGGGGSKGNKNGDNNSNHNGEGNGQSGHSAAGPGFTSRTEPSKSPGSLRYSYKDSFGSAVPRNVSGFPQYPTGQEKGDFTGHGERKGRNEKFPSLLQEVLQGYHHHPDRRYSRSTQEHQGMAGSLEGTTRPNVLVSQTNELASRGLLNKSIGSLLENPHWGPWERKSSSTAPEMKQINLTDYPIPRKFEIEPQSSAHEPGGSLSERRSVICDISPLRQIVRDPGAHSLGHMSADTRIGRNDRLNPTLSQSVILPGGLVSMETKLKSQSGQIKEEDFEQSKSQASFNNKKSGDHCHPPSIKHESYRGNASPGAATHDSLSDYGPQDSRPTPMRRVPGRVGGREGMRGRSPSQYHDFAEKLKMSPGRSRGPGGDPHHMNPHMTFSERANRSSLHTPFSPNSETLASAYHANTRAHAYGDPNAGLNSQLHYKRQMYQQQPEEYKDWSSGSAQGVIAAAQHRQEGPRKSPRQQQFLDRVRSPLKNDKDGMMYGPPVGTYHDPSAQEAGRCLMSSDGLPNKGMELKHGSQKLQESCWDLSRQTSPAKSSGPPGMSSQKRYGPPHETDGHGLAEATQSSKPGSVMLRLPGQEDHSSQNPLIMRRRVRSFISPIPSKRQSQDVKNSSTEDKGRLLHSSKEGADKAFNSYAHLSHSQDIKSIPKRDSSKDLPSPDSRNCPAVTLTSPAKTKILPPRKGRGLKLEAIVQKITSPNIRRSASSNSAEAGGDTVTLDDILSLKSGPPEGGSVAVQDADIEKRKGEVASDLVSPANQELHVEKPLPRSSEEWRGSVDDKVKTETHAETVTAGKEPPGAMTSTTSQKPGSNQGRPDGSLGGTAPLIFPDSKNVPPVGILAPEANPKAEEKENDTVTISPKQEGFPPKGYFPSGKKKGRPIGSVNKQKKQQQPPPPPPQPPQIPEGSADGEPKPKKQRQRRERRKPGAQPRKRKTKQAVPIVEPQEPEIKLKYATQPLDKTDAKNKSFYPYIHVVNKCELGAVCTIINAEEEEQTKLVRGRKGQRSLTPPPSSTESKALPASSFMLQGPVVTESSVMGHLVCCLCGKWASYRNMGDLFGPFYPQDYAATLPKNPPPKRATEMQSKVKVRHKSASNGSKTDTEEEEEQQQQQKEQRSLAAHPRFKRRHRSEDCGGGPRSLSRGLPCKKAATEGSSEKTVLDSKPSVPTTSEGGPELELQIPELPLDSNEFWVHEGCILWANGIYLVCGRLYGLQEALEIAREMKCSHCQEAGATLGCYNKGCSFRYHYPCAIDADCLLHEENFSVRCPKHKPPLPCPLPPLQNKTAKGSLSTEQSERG

B1: zinc finger protein ZNF512B (protein, UniProt Q96KM6 1-892)
chain: MTDPFCVGGRRLPGSSKSGPGKDGSRKEVRLPMLHDPPKMGMPVVRGGQTVPGQAPLCFDPGSPASDKTEGKKKGRPKAENQALRDIPLSLMNDWKDEFKAHSRVKCPNSGCWLEFPSIYGLKYHYQRCQGGAISDRLAFPCPFCEAAFTSKTQLEKHRIWNHMDRPLPASKPGPISRPVTISRPVGVSKPIGVSKPVTIGKPVGVSKPIGISKPVSVGRPMPVTKAIPVTRPVPVTKPVTVSRPMPVTKAMPVTKPITVTKSVPVTKPVPVTKPITVTKLVTVTKPVPVTKPVTVSRPIVVSKPVTVSRPIAISRHTPPCKMVLLTRSENKAPRATGRNSGKKRAADSLDTCPIPPKQARPENGEYGPSSMGQSSAFQLSADTSSGSLSPGSRPSGGMEALKAAGPASPPEEDPERTKHRRKQKTPKKFTGEQPSISGTFGLKGLVKAEDKARVHRSKKQEGPGPEDARKKVPAAPITVSKEAPAPVAHPAPGGPEEQWQRAIHERGEAVCPTCNVVTRKTLVGLKKHMEVCQKLQDALKCQHCRKQFKSKAGLNYHTMAEHSAKPSDAEASEGGEQEERERLRKVLKQMGRLRCPQEGCGAAFSSLMGYQYHQRRCGKPPCEVDSPSFPCTHCGKTYRSKAGHDYHVRSEHTAPPPEEPTDKSPEAEDPLGVERTPSGRVRRTSAQVAVFHLQEIAEDELARDWTKRRMKDDLVPETARLNYTRPGLPTLNPQLLEAWKNEVKEKGHVNCPNDCCEAIYSSVSGLKAHLASCSKGAHLAGKYRCLLCPKEFSSESGVKYHILKTHAENWFRTSADPPPKHRSQDSLVPKKEKKKNLAGGKKRGRKPKERTPEEPVAKLPPRRDDWPPGCRDKGARGSTGRKVGVSKAPEK
B2: BEND3 (protein, UniProt Q5T5X7 1-828)
chain: MNSTEFTEDVEEVLKSITVKVETEAEDAALDCSVNSRTSEKHSVDSVLTALQDSSKRKQLVSDGLLDSVPGVKRRRLIPEALLAGMRNRENSSPCQGNGEQAGRGRSLGNVWPGEEEPCNDATTPSYKKPLYGISHKIMEKKNPPSGDLLNVYELFEKANASNSPSSLRLLNEPQKRDCGSTGAGTDNDPNIYFLIQKMFYMLNTLTSNMSQLHSKVDLLSLEVSRIKKQVSPTEMVAKFQPPPEYQLTAAELKQIVDQSLSGGDLACRLLVQLFPELFSDVDFSRGCSACGFAAKRKLESLHLQLIRNYVEVYYPSVKDTAVWQAECLPQLNDFFSRFWAQREMEDSQPSGQVASFFEAEQVDPGHFLDNKDQEEALSLDRSSTIASDHVVDTQDLTEFLDEASSPGEFAVFLLHRLFPELFDHRKLGEQYSCYGDGGKQELDPQRLQIIRNYTEIYFPDMQEEEAWLQQCAQRINDELEGLGLDAGSEGDPPRDDCYDSSSLPDDISVVKVEDSFEGERPGRRSKKIWLVPIDFDKLEIPQPDFEVPGADCLLSKEQLRSIYESSLSIGNFASRLLVHLFPELFTHENLRKQYNCSGSLGKKQLDPSRIKLIRHYVQLLYPRAKNDRVWTLEFVGKLDERCRRRDTEQRRSYQQQRKVHVPGPECRDLTSYAINPERFREEFEGPPLPPERSSKDFCKIPLDELVVPSPDFPVPSPYLLSDKEVREIVQQSLSVGNFAARLLVRLFPELFTAENLRLQYNHSGACNKKQLDPTRLRLIRHYVEAVYPVEKMEEVWHYECIPSIDERCRRPNRKKCDILKKAKKVEK
B3: L3MBTL3 (protein, UniProt Q96JM7 1-780)
chain: MTESASSTSGQEFDVFSVMDWKDGVGTLPGSDLKFRVNEFGALEVITDENEMENVKKATATTTWMVPTAQEAPTSPPSSRPVFPPAYWTSPPGCPTVFSEKTGMPFRLKDPVKVEGLQFCENCCQYGNVDECLSGGNYCSQNCARHIKDKDQKEERDVEEDNEEEDPKCSRKKKPKLSLKADTKEDGEERDDEMENKQDVRILRGSQRARRKRRGDSAVLKQGLPPKGKKAWCWASYLEEEKAVAVPAKLFKEHQSFPYNKNGFKVGMKLEGVDPEHQSVYCVLTVAEVCGYRIKLHFDGYSDCYDFWVNADALDIHPVGWCEKTGHKLHPPKGYKEEEFNWQTYLKTCKAQAAPKSLFENQNITVIPSGFRVGMKLEAVDKKNPSFICVATVTDMVDNRFLVHFDNWDESYDYWCEASSPHIHPVGWCKEHRRTLITPPGYPNVKHFSWDKYLEETNSLPAPARAFKVKPPHGFQKKMKLEVVDKRNPMFIRVATVADTDDHRVKVHFDGWNNCYDYWIDADSPDIHPVGWCSKTGHPLQPPLSPLELMEASEHGGCSTPGCKGIGHFKRARHLGPHSAANCPYSEINLNKDRIFPDRLSGEMPPASPSFPRNKRTDANESSSSPEIRDQHADDVKEDFEERTESEMRTSHEARGAREEPTVQQAQRRSAVFLSFKSPIPCLPLRWEQQSKLLPTVAGIPASKVSKWSTDEVSEFIQSLPGCEEHGKVFKDEQIDGEAFLLMTQTDIVKIMSIKLGPALKIFNSILMFKAAEKNSHNEL
B4: HMG20B (protein, UniProt Q9P0W2 1-317)
chain: MSHGPKQPGAAAAPAGGKAPGQHGGFVVTVKQERGEGPRAGEKGSHEEEPVKKRGWPKGKKRKKILPNGPKAPVTGYVRFLNERREQIRTRHPDLPFPEITKMLGAEWSKLQPTEKQRYLDEAEREKQQYMKELRAYQQSEAYKMCTEKIQEKKIKKEDSSSGLMNTLLNGHKGGDCDGFSTFDVPIFTEEFLDQNKAREAELRRLRKMNVAFEEQNAVLQRHTQSMSSARERLEQELALEERRTLALQQQLQAVRQALTASFASLPVPGTGETPTLGTLDFYMARLHGAIERDPAQHEKLIVRIKEILAQVASEHL
B5: GSE1 (protein, UniProt Q14687 1-1217)
chain: MKGMSHEPKSPSLGMLSTATRTTATVNPLTPSPLNGALVPSGSPATSSALSAQAAPSSSFAAALRKLAKQAEEPRGSSLSSESSPVSSPATNHSSPASTPKRVPMGPIIVPPGGHSVPSTPPVVTIAPTKTVNGVWRSESRQDAGSRSSSGGRERLIVEPPLPQEKAGGPAIPSHLLSTPYPFGLSPSSVVQDSRFPPLNLQRPVHHVVPPSTVTEDYLRSFRPYHTTDDLRMSSLPPLGLDPATAAAYYHPSYLAPHPFPHPAFRMDDSYCLSALRSPFYPIPTPGSLPPLHPSAMHLHLSGVRYPPELSHSSLAALHSERMSGLSAERLQMDEELRREREREREREREREADREREKEREREREKEREQEKEREREKERERELERQREQRAREKELLAAKALEPSFLPVAELHGLRGHATEERGKPSEQLTPTRAEKLKDAGLQAPKPVQHPLHPVPTPHHTVPSLISNHGIFSLPSSSAATALLIQRTNEEEKWLARQRRLRQEKEDRQSQVSEFRQQVLEQHLDMGRPPVPAEAEHRPESTTRPGPNRHEPGGRDPPQHFGGPPPLISPKPQLHAAPTALWNPVSLMDNTLETRRAESHSLHSHPAAFEPSRQAAVPLVKVERVFCPEKAEEGPRKREPAPLDKYQPPPPPPREGGSLEHQPFLPGPGPFLAELEKSTQTILGQQRASLPQAATFGELSGPLKPGSPYRPPVPRAPDPAYIYDEFLQQRRRLVSKLDLEERRRREAQEKGYYYDLDDSYDESDEEEVRAHLRCVAEQPPLKLDTSSEKLEFLQLFGLTTQQQKEELVAQKRRKRRRMLRERSPSPPTIQSKRQTPSPRLALSTRYSPDEMNNSPNFEEKKKFLTIFNLTHISAEKRKDKERLVEMLRAMKQKALSAAVADSLTNSPRDSPAVSLSEPATQQASLDVEKPVGVAASLSDIPKAAEPGKLEQVRPQELSRVQELAPASGEKARLSEAPGGKKSLSMLHYIRGAAPKDIPVPLSHSTNGKSKPWEPFVAEEFAHQFHESVLQSTQKALQKHKGSVAVLSAEQNHKVDTSVHYNIPELQSSSRAPPPQHNGQQEPPTARKGPPTQELDRDSEEEEEEDDEDGEDEEEVPKRKWQGIEAVFEAYQEHIEEQNLERQVLQTQCRRLEARHYSLSLTAEQLSHSVAELRSQKQKMVSERERLQAELDHLRKCLALPAMHWPRGYLKGYPR

Biological target: GFP-HMG20A (High Mobility Group 20A), stably expressed in HeLa Kyoto cells (human) (UniProt Q9NP66)
Experiment: affinity purification with mass spectrometry; GFP-HMG20A mononucleosome IP from HeLaK cells with GFP-TRAP beads, on-bead tryptic digestion, label-free quantitative MS/MS against GFP control; two biological replicates

| Molecule | binding |
| --- | --- |
| PHF21A (from UniProt Q96BD5 1-680) | binds |
| RCOR1 (from UniProt Q9UKL0 1-485) | binds |
| RCOR3 (from UniProt Q9P2K3 1-495) | binds |
| Retinoic Acid Induced 1 (RAI1) (from UniProt Q7Z5J4 1-1906) | binds |
| Transcription Factor 20 (TCF20) (from UniProt Q9UGU0 1-1960) | binds |
| B1 | binds |
| B2 | binds |
| B3 | binds |
| B4 | binds |
| B5 | binds |
